Laboratory results from article PMC5520919.
These are yes or no findings as the source states them, for the method shown. In cells and extracts the contact can be indirect. Some entries that bind do so weakly or less than the wild type.

By UniProt entry, the sequences of proteins in these tests, tags left out.
UniProt O15371: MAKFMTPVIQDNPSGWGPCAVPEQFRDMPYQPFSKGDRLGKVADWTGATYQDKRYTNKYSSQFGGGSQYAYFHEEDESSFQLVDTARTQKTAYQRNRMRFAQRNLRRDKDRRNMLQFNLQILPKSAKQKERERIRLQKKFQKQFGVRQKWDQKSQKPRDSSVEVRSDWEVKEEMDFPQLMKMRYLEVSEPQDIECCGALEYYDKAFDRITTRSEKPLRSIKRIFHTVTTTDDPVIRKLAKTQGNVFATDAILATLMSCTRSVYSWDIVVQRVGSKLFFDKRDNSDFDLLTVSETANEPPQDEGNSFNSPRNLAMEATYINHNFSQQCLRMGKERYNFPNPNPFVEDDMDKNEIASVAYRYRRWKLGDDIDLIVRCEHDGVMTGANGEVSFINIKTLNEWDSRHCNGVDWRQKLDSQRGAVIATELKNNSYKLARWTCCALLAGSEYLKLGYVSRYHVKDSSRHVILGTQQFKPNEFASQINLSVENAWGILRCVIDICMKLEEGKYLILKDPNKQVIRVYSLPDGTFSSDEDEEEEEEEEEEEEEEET
UniProt P25098: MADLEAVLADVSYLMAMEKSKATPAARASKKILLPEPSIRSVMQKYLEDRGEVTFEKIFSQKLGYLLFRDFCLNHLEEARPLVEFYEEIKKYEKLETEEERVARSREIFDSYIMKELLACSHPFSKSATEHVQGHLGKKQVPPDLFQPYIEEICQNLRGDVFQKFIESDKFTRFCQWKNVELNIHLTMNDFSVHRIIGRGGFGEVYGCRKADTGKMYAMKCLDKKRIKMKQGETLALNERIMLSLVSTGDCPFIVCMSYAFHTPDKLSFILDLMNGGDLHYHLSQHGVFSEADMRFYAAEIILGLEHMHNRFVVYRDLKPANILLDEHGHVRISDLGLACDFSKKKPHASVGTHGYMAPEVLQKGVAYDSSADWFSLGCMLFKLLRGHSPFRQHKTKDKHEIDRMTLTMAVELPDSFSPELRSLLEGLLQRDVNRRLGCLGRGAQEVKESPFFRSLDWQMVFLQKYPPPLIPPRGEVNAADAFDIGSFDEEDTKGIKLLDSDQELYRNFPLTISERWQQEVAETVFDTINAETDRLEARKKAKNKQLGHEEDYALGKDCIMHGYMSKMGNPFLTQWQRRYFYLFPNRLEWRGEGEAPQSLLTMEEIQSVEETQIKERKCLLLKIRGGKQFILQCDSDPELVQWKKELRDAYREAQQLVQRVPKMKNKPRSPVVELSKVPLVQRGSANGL

Columns and labels:
[1] = molecular target: eIF3d (human (endogenous in NOZ)) (UniProt O15371); assay: co-IP; endogenous proteins of NOZ cell lysate; rabbit anti-eIF3d or mouse anti-GRK2 antibody overnight at 4 °C, protein G-Sepharose; lysis buffer 50 mmol/l Tris-HCl pH 8.0, 150 mmol/l NaCl, 1% NP-40; IgG control
[2] = molecular target: eIF3d (expression vector, transfected) (human) (UniProt O15371); assay: co-IP; lysates of GBC-SD cells transiently transfected with eIF3d or eIF3d deletion mutants, immunoprecipitated and immunoblotted
[3] = molecular target: GRK2 (human (endogenous in NOZ)) (UniProt P25098); assay: co-IP; endogenous proteins of NOZ cell lysate; rabbit anti-eIF3d or mouse anti-GRK2 antibody overnight at 4 °C, protein G-Sepharose; lysis buffer 50 mmol/l Tris-HCl pH 8.0, 150 mmol/l NaCl, 1% NP-40; IgG control

Substance	binding [1]	binding [2]	binding [3]
GRK2 (from UniProt P25098 1-689) (enzyme)	binds	binds	–
eIF3d (from UniProt O15371 1-548)	–	–	binds
